Reference: paper PMC10850294, “Fumarate respiration of Fasciola flukes as a potential drug target” (Frontiers in Cellular and Infection Microbiology, 2024)

Tests used:
[1] = test system: T1, NADH-quinone reductase (complex I) of adult Fasciola flukes; assay: NADH-quinone reductase assay, NADH oxidation at […] nm, mitochondrial fraction; format: biochemical, Fasciola hepatica x Fasciola gigantica; details: 50 μM NADH, 90 μM UQ2, 1 mM KCN, pH 7.4, 25 °C, 2 min preincubation
T1 construct: gene NDUFS2; native complex in adult fluke mitochondrial fraction (not purified); with NADH dehydrogenase [ubiquinone] flavoprotein 1, mitochondrial; NADH dehydrogenase [ubiquinone] flavoprotein 2, mitochondrial; NADH-ubiquinone oxidoreductase 75 kDa subunit, mitochondrial

[2] = test system: T2, Succinate-quinone reductase (complex II) of adult Fasciola flukes; assay: succinate-quinone reductase assay, UQ2 reduction at […] nm, mitochondrial fraction; format: biochemical, Fasciola hepatica x Fasciola gigantica; details: 10 mM succinate, 60 μM UQ2, 0.1% sucrose monolaurate, 1 mM KCN, pH 7.4, 25 °C, 2 min preincubation
T2 construct: gene SDHB; native complex in adult fluke mitochondrial fraction (not purified); with Succinate dehydrogenase [ubiquinone] flavoprotein subunit, mitochondrial

| Compound | NADH-quinone reductase (complex I) ([1]; 1 µM) [%] | Succinate-quinone reductase (complex II) ([2]; 1 µM) [%] | NADH-quinone reductase (complex I) ([1]; 0.1 µM) [%] | Succinate-quinone reductase (complex II) ([2]; 0.1 µM) [%] |
| --- | --- | --- | --- | --- |
| CC(/C=C/[C@@]1(C)[C@H](C)CCC(=O)[C@@H]1C)=C\Cc1c(O)c(Cl)c(C)c(C=O)c1O [ascochlorin] | 8.40 ± 2.00 | 72.3 ± 1.90 |  |  |
| COc1[nH]c(=O)c(C(=O)[C@@H](C)C[C@H](C)[C@@H](Cl)CCl)c(O)c1OC [atpenin A5] | 16.1 ± 14.5 | 97.2 ± 0.80 |  |  |
| C=C(C)[C@H]1Cc2c(ccc3c2O[C@@H]2COc4cc(OC)c(OC)cc4[C@@H]2C3=O)O1 [rotenone] |  |  | 91.0 ± 1.80 | 15.0 ± 8.20 |
